# From patent US5034510A (Shin-Etsu Chemical Co., Ltd., priority 1986, dated 1991)
# The star is where a group is joined. Tos = Cc1ccc(S(=O)(=O)*)cc1; ClZ = O=C(OCc1ccccc1Cl)*; OPac = O=C(CO*)c1ccccc1; Boc = CC(C)(C)OC(=O)*; OcHex = C1CCC(O*)CC1; OBn = c1ccc(CO*)cc1
# Assay: general procedure: solution-phase peptide synthesis; OSu/ONp active esters; WSCI/HOBt for fragment condensation
# Conditions: HCl
Substance,step yield (late stage modification step) [%],step yield (coupling step) [%]
Boc-Arg(Tos)-Trp(CHO)-Lys(ClZ)-Ile-Phe-Lys(ClZ)-Lys(ClZ)-Ile-Glu(OBzl)-Lys(ClZ)-Met-Gly-Arg(Tos)-Asn-Ile-Arg(Tos)-Asp(OcHex)-Gly-OH,98.5,–
Boc-Arg(Tos)-Trp(CHO)-Lys(ClZ)-Ile-Phe-Lys(ClZ)-Lys(ClZ)-Ile-Glu(OBzl)-Lys(ClZ)-Met-Gly-Arg(Tos)-Asn-Ile-Arg(Tos)-Asp(OcHex)-Gly-OPac,–,60.3
Boc-Arg(Tos)-Trp(CHO)-Lys(ClZ)-Ile-Phe-Lys(ClZ)-Lys(ClZ)-Ile-Glu(OBzl)-Lys(ClZ)-Met-Gly-OH,89.8,–
Boc-Arg(Tos)-Trp(CHO)-Lys(ClZ)-Ile-Phe-Lys(ClZ)-Lys-(ClZ)-Ile-Glu(OBzl)-Lys(ClZ)-Met-Gly-OPac,–,77.0
Boc-Arg(Tos)-Trp(CHO)-Lys(ClZ)-Ile-Phe-Lys(ClZ)-OH,94.0,–
Boc-Arg(Tos)-Trp(CHO)-Lys(ClZ)-Ile-Phe-Lys(ClZ)-OPac,–,76.8
Boc-Glu(OBzl)-Lyz(ClZ)-Met-Gly-OPac,–,85.9
Boc-IE(OBn)K(ClZ)MG-OPac,–,81.6
Boc-IR(Tos)D(OcHex)G-OPac,–,96.8
Boc-K(ClZ)IE(OBn)K(ClZ)MG-OPac,–,87.5
Boc-K(ClZ)IFK(ClZ)-OPac,–,98.6
Boc-NIR(Tos)D(OcHex)G-OPac,–,80.2
Boc-R(Tos)NIR(Tos)D(OcHex)G-OPac,–,80.7
Boc-Trp(CHO)-Lys(ClZ)-Ile-Phe-Lys(ClZ)-OPac,–,81.7
HCl-H-Ile-Arg(Tos)-Asp(OcHex)-Gly-OPac,98.5,–
HCl.H-Arg(Tos)-Asn-Ile-Arg(Tos)-Asp(OcHex)-Gly-OPac,95.4,–
HCl.H-Glu(OBzl)-Lys(ClZ)-Met-Gly-OPac,82.9,–
HCl.H-Ile-Glu(OBzl)-Lys(ClZ)-Met-Gly-OPac,96.6,–
HCl.H-Lys(ClZ)-Ile-Glu(OBzl)-Lys(ClZ)-Met-Gly-OPac,97.1,–
HCl.H-Lys(ClZ)-Ile-Phe-Lys(ClZ)-OPac,97.2,–
TFA.H-Trp(CHO)-Lys(ClZ)-Ile-Phe-Lys(ClZ)-OPac,83.9,–
